For one substance, binding results are on record in PMC12700555.

Chains of the proteins cited; added tags and fusions are not shown.
UniProt O95235: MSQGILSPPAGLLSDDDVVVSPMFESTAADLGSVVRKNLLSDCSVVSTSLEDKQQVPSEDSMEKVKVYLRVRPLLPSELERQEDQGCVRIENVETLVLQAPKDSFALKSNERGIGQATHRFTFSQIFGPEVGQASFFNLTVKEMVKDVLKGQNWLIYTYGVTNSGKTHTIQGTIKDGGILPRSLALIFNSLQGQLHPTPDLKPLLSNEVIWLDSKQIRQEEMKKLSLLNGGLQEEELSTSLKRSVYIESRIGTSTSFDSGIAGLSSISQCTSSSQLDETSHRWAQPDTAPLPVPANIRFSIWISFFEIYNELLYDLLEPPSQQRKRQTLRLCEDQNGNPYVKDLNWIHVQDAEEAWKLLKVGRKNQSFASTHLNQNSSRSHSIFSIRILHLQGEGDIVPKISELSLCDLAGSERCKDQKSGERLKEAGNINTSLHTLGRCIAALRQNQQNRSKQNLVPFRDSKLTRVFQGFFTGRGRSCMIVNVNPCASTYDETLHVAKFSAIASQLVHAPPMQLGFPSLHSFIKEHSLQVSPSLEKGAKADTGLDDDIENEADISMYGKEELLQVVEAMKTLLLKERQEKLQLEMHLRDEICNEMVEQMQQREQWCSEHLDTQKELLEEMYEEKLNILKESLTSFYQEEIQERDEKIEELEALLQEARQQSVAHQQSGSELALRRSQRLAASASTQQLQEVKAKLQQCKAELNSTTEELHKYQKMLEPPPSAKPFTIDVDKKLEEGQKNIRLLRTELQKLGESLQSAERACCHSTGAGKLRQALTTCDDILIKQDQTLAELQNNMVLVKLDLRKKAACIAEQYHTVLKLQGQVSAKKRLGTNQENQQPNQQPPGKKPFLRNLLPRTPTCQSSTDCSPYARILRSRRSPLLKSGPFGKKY
UniProt P51532: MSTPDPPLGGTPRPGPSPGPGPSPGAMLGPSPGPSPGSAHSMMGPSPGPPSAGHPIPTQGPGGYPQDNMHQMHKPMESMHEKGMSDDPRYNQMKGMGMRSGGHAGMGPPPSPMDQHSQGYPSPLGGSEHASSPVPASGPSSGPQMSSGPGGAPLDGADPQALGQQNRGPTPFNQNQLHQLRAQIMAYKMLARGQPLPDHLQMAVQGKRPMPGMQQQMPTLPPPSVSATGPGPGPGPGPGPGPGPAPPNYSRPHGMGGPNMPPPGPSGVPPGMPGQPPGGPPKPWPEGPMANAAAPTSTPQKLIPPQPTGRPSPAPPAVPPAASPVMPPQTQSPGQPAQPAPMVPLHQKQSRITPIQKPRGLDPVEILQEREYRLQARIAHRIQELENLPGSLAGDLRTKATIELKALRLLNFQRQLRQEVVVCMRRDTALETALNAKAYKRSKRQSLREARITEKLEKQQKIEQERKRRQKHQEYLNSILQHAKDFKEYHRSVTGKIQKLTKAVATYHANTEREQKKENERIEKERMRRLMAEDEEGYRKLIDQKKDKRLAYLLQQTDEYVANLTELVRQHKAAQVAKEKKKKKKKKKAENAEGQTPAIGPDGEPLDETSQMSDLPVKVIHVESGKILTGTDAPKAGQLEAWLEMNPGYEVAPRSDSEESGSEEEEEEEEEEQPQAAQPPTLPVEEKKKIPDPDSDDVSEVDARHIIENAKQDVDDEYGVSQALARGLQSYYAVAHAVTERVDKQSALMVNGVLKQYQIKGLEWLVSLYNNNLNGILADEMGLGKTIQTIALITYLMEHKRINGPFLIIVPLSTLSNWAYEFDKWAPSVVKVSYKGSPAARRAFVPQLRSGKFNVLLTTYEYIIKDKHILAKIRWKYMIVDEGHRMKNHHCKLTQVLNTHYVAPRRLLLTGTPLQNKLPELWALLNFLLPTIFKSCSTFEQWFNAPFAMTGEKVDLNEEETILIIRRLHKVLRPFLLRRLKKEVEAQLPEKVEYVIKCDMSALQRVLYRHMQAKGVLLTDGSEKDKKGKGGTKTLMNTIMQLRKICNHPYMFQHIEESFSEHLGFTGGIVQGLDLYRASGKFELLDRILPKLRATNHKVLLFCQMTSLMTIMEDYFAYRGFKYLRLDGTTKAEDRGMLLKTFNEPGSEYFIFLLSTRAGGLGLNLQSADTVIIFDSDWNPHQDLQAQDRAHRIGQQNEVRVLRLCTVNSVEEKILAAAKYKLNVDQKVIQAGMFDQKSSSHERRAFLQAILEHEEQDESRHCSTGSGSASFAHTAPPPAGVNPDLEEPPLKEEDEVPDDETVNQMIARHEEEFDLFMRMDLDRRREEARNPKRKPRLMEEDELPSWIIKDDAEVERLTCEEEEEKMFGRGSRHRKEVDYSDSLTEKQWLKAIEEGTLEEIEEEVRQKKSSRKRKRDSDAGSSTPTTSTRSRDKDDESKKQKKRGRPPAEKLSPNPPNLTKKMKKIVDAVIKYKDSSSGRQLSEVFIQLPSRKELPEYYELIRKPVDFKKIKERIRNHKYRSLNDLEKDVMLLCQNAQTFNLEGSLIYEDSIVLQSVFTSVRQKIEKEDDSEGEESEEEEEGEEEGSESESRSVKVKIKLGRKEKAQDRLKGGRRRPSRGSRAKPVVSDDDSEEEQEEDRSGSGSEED

This assay addresses V5-tagged KIF20A (kinesin family member 20A) (UniProt O95235). The assay can be described thus: affinity purification with mass spectrometry; lysate of MDA-MB-231 cells with V5-tagged KIF20A on anti-V5 beads overnight at 4°C; 50 mM Tris-HCl pH 7.5, 150 mM NaCl, 0.5% NP-40, 10% glycerol; 5 washes; LC-MS/MS, label-free quantitation.

These are yes or no findings as the source states them, for the method shown. Binding seen in cells or lysates may run through a third protein. A yes stands for co-enrichment or nearness to the bait. Other partners may have been found.

As to “endogenous SMARCA4 (from UniProt P51532 1-1647)”, the binding result is reported as “binds”.
